The values that follow come from article PMC8581049.

Sequences of proteins named here, by UniProt entry; tags and fusion partners are left off.
UniProt P58801: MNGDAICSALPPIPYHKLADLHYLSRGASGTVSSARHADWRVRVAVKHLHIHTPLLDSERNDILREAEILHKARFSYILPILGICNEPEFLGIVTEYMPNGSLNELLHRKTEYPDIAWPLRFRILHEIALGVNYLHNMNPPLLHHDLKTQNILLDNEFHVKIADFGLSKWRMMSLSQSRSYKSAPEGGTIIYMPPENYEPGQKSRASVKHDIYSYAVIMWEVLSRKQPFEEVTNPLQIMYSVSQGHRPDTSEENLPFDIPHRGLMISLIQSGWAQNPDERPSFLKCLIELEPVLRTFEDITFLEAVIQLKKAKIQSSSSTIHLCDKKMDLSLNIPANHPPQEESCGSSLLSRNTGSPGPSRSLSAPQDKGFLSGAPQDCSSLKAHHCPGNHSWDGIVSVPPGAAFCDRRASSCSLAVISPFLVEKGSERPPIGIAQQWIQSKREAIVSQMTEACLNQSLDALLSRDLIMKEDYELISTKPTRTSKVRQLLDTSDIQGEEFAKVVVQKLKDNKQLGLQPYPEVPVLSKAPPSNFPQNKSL
UniProt O35099: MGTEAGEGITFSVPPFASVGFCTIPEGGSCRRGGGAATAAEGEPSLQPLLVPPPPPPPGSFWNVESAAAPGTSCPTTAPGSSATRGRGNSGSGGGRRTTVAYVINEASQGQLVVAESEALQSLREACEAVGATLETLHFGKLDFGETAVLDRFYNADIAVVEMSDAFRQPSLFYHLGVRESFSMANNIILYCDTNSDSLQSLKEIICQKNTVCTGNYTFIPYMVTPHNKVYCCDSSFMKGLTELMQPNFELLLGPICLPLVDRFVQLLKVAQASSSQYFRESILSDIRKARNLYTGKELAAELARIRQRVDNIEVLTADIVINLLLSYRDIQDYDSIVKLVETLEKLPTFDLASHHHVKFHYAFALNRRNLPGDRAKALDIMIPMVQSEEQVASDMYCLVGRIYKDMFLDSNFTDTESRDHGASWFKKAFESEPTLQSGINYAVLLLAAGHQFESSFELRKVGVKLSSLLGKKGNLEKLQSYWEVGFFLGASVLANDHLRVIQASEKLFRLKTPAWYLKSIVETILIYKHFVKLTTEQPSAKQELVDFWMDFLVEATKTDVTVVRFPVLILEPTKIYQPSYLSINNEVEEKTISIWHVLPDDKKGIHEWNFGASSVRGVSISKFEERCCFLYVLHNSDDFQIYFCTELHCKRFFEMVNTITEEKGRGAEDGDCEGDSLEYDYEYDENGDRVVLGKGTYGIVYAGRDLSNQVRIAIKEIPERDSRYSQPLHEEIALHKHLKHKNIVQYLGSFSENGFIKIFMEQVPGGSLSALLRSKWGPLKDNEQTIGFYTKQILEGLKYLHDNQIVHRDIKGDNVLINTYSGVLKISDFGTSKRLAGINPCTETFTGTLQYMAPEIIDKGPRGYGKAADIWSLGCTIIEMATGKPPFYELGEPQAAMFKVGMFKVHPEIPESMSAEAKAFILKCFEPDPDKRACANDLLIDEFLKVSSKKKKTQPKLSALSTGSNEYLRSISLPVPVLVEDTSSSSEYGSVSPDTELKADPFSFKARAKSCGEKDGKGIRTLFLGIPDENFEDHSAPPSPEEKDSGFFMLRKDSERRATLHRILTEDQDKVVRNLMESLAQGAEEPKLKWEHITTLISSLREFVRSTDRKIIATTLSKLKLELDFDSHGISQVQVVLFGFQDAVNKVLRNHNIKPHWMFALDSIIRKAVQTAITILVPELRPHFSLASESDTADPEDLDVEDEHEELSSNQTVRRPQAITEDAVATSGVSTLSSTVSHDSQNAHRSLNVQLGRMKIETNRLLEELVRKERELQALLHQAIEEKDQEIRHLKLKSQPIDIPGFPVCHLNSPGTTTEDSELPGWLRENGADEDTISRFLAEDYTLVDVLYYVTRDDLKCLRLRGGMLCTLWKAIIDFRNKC

These are yes or no findings as the source states them, for the method shown. Binding seen in cells or lysates may run through a third protein. Some binding calls cover weakened binding; strength is not graded here.

The assay addresses receptor-interacting serine/threonine-protein kinase 2 (RIPK2), endogenous in HIB 1B cells (mouse (endogenous in HIB 1B)) (UniProt P58801). Kind of assay: co-IP; endogenous proteins; differentiated HIB 1B cells, immunoprecipitation with anti-RIPK2 antibody, immunoblot; lysis buffer with 10 mM N-ethylmaleimide.

Take “apoptosis signal-regulating kinase 1 (ASK1), endogenous in HIB 1B cells (from UniProt O35099 1-1380) (enzyme)”: the binding result was “binds”.
